In article PMC12055972:
Results are given in words; binding and its absence hold for the method and conditions named. In cells and extracts the contact can be indirect. Some binding calls cover weakened binding; strength is not graded here.

Protein sequences, listed by entry. Tags and fused reporters are not part of them.
UniProt P51149: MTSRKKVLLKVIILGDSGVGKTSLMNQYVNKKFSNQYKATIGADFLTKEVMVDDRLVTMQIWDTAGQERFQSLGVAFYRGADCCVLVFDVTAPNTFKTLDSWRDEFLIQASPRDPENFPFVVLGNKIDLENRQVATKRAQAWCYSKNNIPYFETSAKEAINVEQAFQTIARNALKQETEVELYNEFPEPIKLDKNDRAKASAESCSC

Biological target: T1, vascular endothelial (VE)-cadherin (human (endogenous in HLMVECs)) (UniProt P33151)
T1 sequence: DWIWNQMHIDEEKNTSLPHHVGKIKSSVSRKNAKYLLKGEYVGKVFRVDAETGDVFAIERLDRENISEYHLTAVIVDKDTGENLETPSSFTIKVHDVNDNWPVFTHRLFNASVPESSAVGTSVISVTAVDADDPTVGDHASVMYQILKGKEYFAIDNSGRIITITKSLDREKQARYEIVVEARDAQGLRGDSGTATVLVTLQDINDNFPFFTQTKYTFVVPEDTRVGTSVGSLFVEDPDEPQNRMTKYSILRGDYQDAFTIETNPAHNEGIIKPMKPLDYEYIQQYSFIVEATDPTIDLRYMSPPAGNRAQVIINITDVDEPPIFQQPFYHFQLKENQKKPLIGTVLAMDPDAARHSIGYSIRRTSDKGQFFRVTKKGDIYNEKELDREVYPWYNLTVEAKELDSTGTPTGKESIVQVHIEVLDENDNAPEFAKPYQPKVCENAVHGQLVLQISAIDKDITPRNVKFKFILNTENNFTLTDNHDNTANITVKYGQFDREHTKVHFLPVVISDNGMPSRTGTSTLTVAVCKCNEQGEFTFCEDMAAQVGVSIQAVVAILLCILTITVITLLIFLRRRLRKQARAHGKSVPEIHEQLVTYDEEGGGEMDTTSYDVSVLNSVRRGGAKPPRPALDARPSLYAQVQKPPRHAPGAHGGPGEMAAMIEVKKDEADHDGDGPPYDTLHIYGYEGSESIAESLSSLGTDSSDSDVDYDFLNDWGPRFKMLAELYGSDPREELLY
Assay: co-IP; HLMVECs with or without cyclic stretch, lysed in IP-buffer; supernatant with protein A/G beads, the corresponding antibodies and homologous IgG overnight at 4 °C; five washes; western blot

- binding: binds
Substance: Ras-related protein RAB7 (from UniProt P51149 1-207)
